Article PMC5548797

What was measured:
[1] = biological target: T1, AdV protein IVa2 of HAdV-C5 (HAdV-C5) (UniProt P03271); test: co-IP; nuclear extracts of HAdV-C5-infected 293 cells immunoprecipitated with anti-IVa2, anti-33K, anti-DBP or anti-hexon antibodies (controls: normal mouse IgG, normal rabbit IgG); immunoblot with anti-E4 34K antibody
T1 sequence: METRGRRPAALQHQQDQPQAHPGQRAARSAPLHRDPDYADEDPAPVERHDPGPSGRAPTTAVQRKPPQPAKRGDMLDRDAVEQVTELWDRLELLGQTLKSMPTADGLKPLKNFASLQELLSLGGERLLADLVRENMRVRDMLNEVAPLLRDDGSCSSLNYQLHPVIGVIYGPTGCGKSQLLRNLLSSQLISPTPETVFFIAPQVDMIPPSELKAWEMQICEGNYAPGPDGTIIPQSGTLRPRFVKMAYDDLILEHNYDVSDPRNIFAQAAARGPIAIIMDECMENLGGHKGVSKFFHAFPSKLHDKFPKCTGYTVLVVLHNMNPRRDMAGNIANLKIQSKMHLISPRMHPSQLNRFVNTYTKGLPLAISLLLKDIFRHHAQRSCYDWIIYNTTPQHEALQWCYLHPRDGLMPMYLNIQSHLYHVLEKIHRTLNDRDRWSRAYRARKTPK

[2] = biological target: T2, L4 33K protein of HAdV-C5 (HAdV-C5) (UniProt P24940); test: as above
T2 sequence: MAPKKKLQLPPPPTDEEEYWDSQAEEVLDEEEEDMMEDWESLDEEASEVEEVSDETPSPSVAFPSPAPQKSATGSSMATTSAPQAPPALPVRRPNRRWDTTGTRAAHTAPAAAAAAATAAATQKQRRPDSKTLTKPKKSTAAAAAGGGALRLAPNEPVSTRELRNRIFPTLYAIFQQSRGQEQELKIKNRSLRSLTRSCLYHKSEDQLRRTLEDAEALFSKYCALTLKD

Adenoviral E4 34K protein of HAdV-C5
binding [1]: binds
binding [2]: binds

No constants are given. Whether binding was seen depends on the method and setting. Binding seen in cells or lysates may run through a third protein. Binding calls can cover weak binding; strength is not graded here.
